Measurements from “University of Dundee, Small-Polar-MMV Screening Library” (2021), ChEMBL document CHEMBL3988442.

Sequences of proteins named here, by UniProt entry; tags and fusion partners are left off.
UniProt E9BF75, entry or part of it: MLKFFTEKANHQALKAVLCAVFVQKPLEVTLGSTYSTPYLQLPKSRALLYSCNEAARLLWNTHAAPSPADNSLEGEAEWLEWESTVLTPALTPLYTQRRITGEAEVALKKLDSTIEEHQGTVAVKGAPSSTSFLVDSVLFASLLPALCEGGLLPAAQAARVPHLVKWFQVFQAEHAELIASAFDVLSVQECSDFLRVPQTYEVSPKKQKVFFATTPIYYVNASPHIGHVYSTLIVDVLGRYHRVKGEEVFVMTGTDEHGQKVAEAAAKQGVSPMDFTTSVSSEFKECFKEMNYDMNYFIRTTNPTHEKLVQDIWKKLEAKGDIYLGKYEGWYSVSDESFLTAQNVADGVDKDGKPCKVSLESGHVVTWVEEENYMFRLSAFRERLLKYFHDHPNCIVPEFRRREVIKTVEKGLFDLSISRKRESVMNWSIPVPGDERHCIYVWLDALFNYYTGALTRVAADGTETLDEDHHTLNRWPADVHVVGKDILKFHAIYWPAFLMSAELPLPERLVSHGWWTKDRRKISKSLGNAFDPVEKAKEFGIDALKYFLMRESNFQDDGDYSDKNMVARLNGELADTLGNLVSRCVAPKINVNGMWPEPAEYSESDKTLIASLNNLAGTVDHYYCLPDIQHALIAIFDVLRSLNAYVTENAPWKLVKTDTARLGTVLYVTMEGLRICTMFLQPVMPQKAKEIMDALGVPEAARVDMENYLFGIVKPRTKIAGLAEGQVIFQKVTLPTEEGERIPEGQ

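Primary screen of methionyl-tRNA synthetase; the read-out is not stated. Target: Methionyl-tRNA synthetase (putative), Leishmania donovani (UniProt E9BF75). The test concentration is not given. Values are per cent inhibition. Size under these conditions: about 68,000 compounds, about 24 of them at 50% or above in at least one test.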

All values are in %. How 0% and 100% were set is not recorded. Most values in the screen are low, and negative values occur. The compounds are a random part of those screened.

compound | inhibition
CCN1CCCC(c2cc(Nc3cnccn3)nc(C)n2)C1 (centres unmarked) | 8.414
Cc1ccc2nc(C)cc(NCCNS(=O)(=O)c3cn(C)nc3C)c2c1 | 12.23
Cc1ccccc1-c1cncc(C2CCN(C3CCOCC3)CC2)n1 | 10.42
O=C(O)c1ccc(C2CCCN(Cc3ccc(-c4cc[nH]n4)o3)C2)cc1 (centres unmarked) | 10.9
CN(C)c1nc(NCCc2ccnn2C)ncc1F | 15.46
CC(=O)c1cnc(NCC2OCCc3ccccc32)nc1C (centres unmarked) | 9.537
CCc1ccc(CN2CCc3[nH]nc(C(=O)N4CCNC(=O)C4)c3C2)o1 | 14.13
COC1CCCN(Cc2nc(Cc3ccccc3F)no2)C1 (centres unmarked) | 14.81
CNC(=O)C1CCCCN1C(=O)c1n[nH]c(=O)c2ccccc12 (centres unmarked) | -5.96
CCc1nc(C2CCCN2CC(=O)Nc2nnc(C)s2)no1 (centres unmarked) | 10.54
Cc1noc(C)c1CCC(=O)N(C)C(C)c1cccs1 (centres unmarked) | 8.871
CC(C)(C)CC(=O)NCCCn1cncn1 | 14.78
Cc1nnc(C(C)N2CCN(Cc3ccc(C(F)(F)F)cc3)CC2)o1 (centres unmarked) | 12.78
O=C(Cn1cc(-n2cccc2)cn1)NCC(F)(F)F | 22.16
COc1ccccc1-n1c(O)cc(C)c(C#N)c1=O | 6.077
O=C([C@H]1C[C@H]2OCC[C@H]2N(C(=O)c2ccccn2)C1)N1CCCCO1 | 8.889
Cc1ccc(CNC2(Cc3cc(C(C)(C)O)on3)COC2)o1 | 8.475
COc1ccc(-n2ccc(C(=O)N(CCN(C)C)C(C)C)n2)cc1 | 8.401
CS(=O)(=O)N[C@@H]1CN(Cc2ccccc2)C[C@H]1O | 10.38
NCCO[C@H]1C[C@@H](O)C12CCN(C(=O)CCOc1ccccc1)CC2 | 8.824
COC1COC2(CCN(CC3CC3)CC2)C1 (centres unmarked) | 9.384
C[C@H](N)C(=O)N1CCC(c2[nH]ncc2-c2ccccc2)CC1 | 19.68
Cc1cc(Br)ccc1NCc1ccc(C(=O)N(C)C)[nH]1 | 0.2688
Cc1cc(C(=O)N2CC(O)CO2)c2ccc(C)c(C)c2n1 (centres unmarked) | 12.33
Cn1cc(CN2CCCCC2c2ccc(-c3cccc(F)c3)nc2)cn1 (centres unmarked) | 13.65
CN(Cc1ccc(Cl)c(F)c1)C(=O)c1ccncc1F | -6.923
CCCn1nccc1-c1cc(C2CCN(S(C)(=O)=O)CC2)nc(C)n1 | 16.13
Cc1ncsc1CCN(C)Cc1ccc(CO)o1 | 13.77
COCCN(C)CCN1CC2(CCN(C(=O)C3CCOC3)CC2)OC1=O (centres unmarked) | 7.874
CS(=O)(=O)CCCC(=O)Nc1cc(-c2cccc(F)c2F)n[nH]1 | 23.78
CN1C(=O)CC(C(=O)O)C12CCN(Cc1cc(F)ccc1Cl)CC2 (centres unmarked) | 8.219
CCN(Cc1ccc(C)o1)C(=O)C(C)n1ccnc1C(C)C (centres unmarked) | 13.84
CCC(=O)N1C[C@@H](C(=O)NC)[C@H](c2ccnc(N3CCCC3)n2)C1 | 17.3
CCC(NC(=O)C1CCN(S(C)(=O)=O)CC1)c1ccc(C)cc1 (centres unmarked) | 12.81
N#Cc1cc(N2CCC(S(N)(=O)=O)CC2)c2ccccc2n1 | 13.89
Cc1cnc2c(S(=O)(=O)NC(=O)C(C)OCC3CC3)cccc2c1 (centres unmarked) | 12.9
Cc1nc(C(=O)N2CC[C@@]3(C[C@H](NS(C)(=O)=O)CCO3)C2)cs1 | 14.43
CC(C)Cc1noc(CN2CCCC(CNS(N)(=O)=O)C2)n1 (centres unmarked) | 14.78
Cc1c(C(=O)N2CCCC(C(=O)c3nccn3C)C2)c[nH]c(=O)c1C#N (centres unmarked) | 0
NS(=O)(=O)Cc1ccc(CNC(=O)NCC2CCOC2)cc1 (centres unmarked) | 11.81
CN(C)C(=O)Cc1ccc(NCc2nccn2C)cc1 | 17.54
COc1ccc(C[C@H]2CN(C(=O)c3cscn3)CC[C@@H]2OC)cc1 | 3.361
CN(CC(=O)Nc1cccc(F)c1)Cc1nc(N)nc(N(C)C)n1 | 12.81
CN(Cc1ccsc1)C(=O)c1n[nH]c(N)c1-c1ccccc1 | 18.32
O=C(Cn1ccnc1)N1CCCC(OCc2cccnc2)C1 (centres unmarked) | 0.2725
O=C(c1cc(Cl)cc2cccnc12)N1CCN(CCO)CC1 | 15.71
O=C(C1CCOCC1)N1C[C@H]2CNC[C@H]2C1 | 1.681
CC(CC(=O)NCCCn1cccn1)c1cccnc1 (centres unmarked) | 13.79
O=C1CC2(CCN(Cc3ccncc3)C2)CN1c1ccc2c(c1)OCO2 (centres unmarked) | -22.88
Cc1cc(N2CCC(O)(CN(C)C(=O)CCN)CC2)c2cnccc2n1 | 18.55
O=c1[nH]c2ncccc2n1C1CCCC1 | 17.25
COc1cccc(CN2CCC(c3nn(CCN)c4nccnc34)C2)c1 (centres unmarked) | 14.24
O=C(O)c1cccnc1CN1CCCCC1CCc1ccccn1 (centres unmarked) | 16.45
CC(=O)NCCC(=O)NCCCOc1c(C)cccc1C | 6.747
Cc1ccc(-n2c(SCC(=O)O)nnc2-c2ccccc2)cc1 | 9.709
Cc1noc(C)c1CN1CCN(CC2CC2)c2ncccc2C1 | 16.38
Cn1ncc2c1NC(=O)CC2c1c(F)cccc1Cl (centres unmarked) | 13.03
Cc1nn(CC(=O)N2CCN(c3ccccc3F)CC2)c(C)c1Cl | 3.937
NCc1cnn(-c2ccccc2C(=O)NCc2ccccn2)c1 | 16.83
O=C(N[C@@H]1CCN(Cc2cc3ccccc3s2)C[C@H]1O)c1cccnc1 | 15.01
Cc1nccc(-c2cccc(NCC(=O)N3CCOCC3)c2)n1 | 25.14
Cc1nc(CCN(C)C(=O)CCNC(=O)c2ccccc2F)no1 | 9.966
CC(C)c1nc(CNC2CCCN(c3cccnn3)C2)no1 (centres unmarked) | 44.1
OCCOc1ccc(NCc2cccc3[nH]ccc23)cn1 | 10.45
COc1cc(C#N)ccc1OCC(=O)NS(=O)(=O)c1ccccc1 | 11.49
COCc1cn(C2CCN(Cc3ccc(Cl)s3)CC2)nn1 | -1.031
O=C(Cn1ccc2ncccc2c1=O)N1CCSCC1 | 8.761
Cc1nn(C)c2c(NCCCn3cccn3)nc(C(C)C)nc12 | 2.764
Cc1ccc(S(=O)(=O)c2ncccc2CN2CCN(CCO)CC2)cc1 | 8.182
Cc1cccnc1C(Cc1ccsc1)NC(=O)Cn1cccnc1=O (centres unmarked) | 19.77
COc1ccc(OC)c(NC(=O)NCC(O)c2ccc(F)c(F)c2)c1 (centres unmarked) | 13.89
CS(=O)(=O)N1C[C@@H]2COC[C@H](C(=O)Nc3cnccn3)[C@@H]2C1 | 11.98
COc1ccc(CNC(=O)NC2CCN(c3ccccc3)C2=O)cc1 (centres unmarked) | 19.23
Cc1cc2nc(C(C)C)cc(N3CCN(c4ccc(O)cc4)CC3)n2n1 | 15.76
COc1ccc(-c2nccnc2C2CCN(C(C)=O)CC2)cc1 | 8.562
COc1cccc(OCc2nnc3n2N=C(C(C)(C)C)CS3)c1 | 19.22
CCCc1nc(CN(CC)C(=O)c2ccc(S(C)(=O)=O)cc2)no1 | 14.63
Cc1ccc(CN2CC[C@H]3O[C@@H](C(=O)N4CCCO4)CC[C@H]32)s1 | 15.56
CN1CCN(C[C@@H]2CN(C(=O)CC3CCCCC3)C[C@@H]2CO)CC1 | 11.72
Cc1cnn(C(C)C2CC2)c1NC(=O)c1cnccn1 (centres unmarked) | 11.85
O=C(c1cnco1)N1CCCC(Cc2cccc3ncccc23)C1 (centres unmarked) | 8.562
CN(Cc1cc(-c2cccnc2)no1)C(=O)C1CCCN1S(C)(=O)=O (centres unmarked) | 6.69
O=C(c1ccsc1)N1C[C@@H]2CCN(C(=O)c3cccc(F)c3)[C@@H]2C1 | 8.889
Cc1csc(N2CCN(Cc3cnc4c(c3)c(C)nn4C)CC2)n1 | 12.68
CC(C)CNC(=O)CNc1c(NCc2ccco2)c(=O)c1=O | 10.76
Cc1ccc(CNC(=O)Cn2c(=O)c3cccnc3n2C)cc1F | 15.89
COc1ncccc1C(=O)NC1(c2cccc(F)c2)CCOCC1 | 8.075
Cc1nnc(CN(C)CC2CCCN2c2cccnn2)o1 (centres unmarked) | 5.222
CC(C)N1CCOC(CC(=O)N2CCCN(c3ccc(F)cc3)CC2)C1 (centres unmarked) | 7.572

Some entries from above, unchanged:

Cc1nccc(-c2cccc(NCC(=O)N3CCOCC3)c2)n1 gave 25.14%.
Cc1nnc(C(C)N2CCN(Cc3ccc(C(F)(F)F)cc3)CC2)o1 (centres unmarked) gave 12.78%.
Cc1ccccc1-c1cncc(C2CCN(C3CCOCC3)CC2)n1 gave 10.42%.
Cc1ccc2nc(C)cc(NCCNS(=O)(=O)c3cn(C)nc3C)c2c1 gave 12.23%.
N#Cc1cc(N2CCC(S(N)(=O)=O)CC2)c2ccccc2n1 gave 13.89%.
O=C(c1cnco1)N1CCCC(Cc2cccc3ncccc23)C1 (centres unmarked) gave 8.562%.
COc1ncccc1C(=O)NC1(c2cccc(F)c2)CCOCC1 gave 8.075%.
O=C(C1CCOCC1)N1C[C@H]2CNC[C@H]2C1 gave 1.681%.
NS(=O)(=O)Cc1ccc(CNC(=O)NCC2CCOC2)cc1 (centres unmarked) gave 11.81%.
CCN(Cc1ccc(C)o1)C(=O)C(C)n1ccnc1C(C)C (centres unmarked) gave 13.84%.